Measurements from “University of Dundee, Small-Polar-MMV Screening Library” (2021), ChEMBL document CHEMBL3988442.

Mtb heat-shock: 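Assay on Mycobacterium tuberculosis, filed only as a heat shock assay from Cornell; the read-out is not stated. The concentration is filed as 10 mM, unlikely as a test dose, so the dose is not known. The record gives no direction; compounds that gave an IC50 in retests scored well above the rest, so higher reads as stronger inhibition. About 69,000 compounds were tested under these conditions; 1.4% (about 930) showed 50% or more at least once.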
Mtb growth Cornell: 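Whole-cell assay for inhibitors of Mycobacterium tuberculosis growth, labelled Cornell in the record; the read-out is not stated. The concentration is filed as 10 mM, unlikely as a test dose, so the dose is not known. The record gives no direction; compounds strong in two other growth screens of this library score well above the rest, so higher reads as stronger inhibition. Size under these conditions: about 53,000 compounds, about 900 of them at 50% or above in at least one test.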

The filed quantity is “Percent Effect” (%). How 0% and 100% were set is not recorded. Most values in the screen are low, and negative values occur. This is an unselected part of the compounds tested. A dash means the value is not listed here; it may have been measured.

compound | Mtb heat-shock | Mtb growth Cornell
Cc1nn(C)c(C)c1C1CCCN1C(=O)c1ccc(C(N)=O)cn1 (stereo not shown) | 9.695 | -
Cn1cc(CN2CCc3nc4sccc4c(=O)n3CC2)cn1 | -25.27 | -10.08
O=S1(=O)CCN(c2nc(C3CC3)ns2)CC1 | -20.68 | 10.85
CN(C)CCOCc1nnc2n1CCN(Cc1ccc(F)cc1)CC2.O=C(O)C(F)(F)F.O=C(O)C(F)(F)F | -30.67 | -12.27
CCc1nnc(CN(C)CC2CCCCC2)o1 | 32.51 | 34.18
O=c1oc(-c2ccc(F)cc2)nn1CC1CCOC1 (stereo not shown) | 8.446 | -
CNc1ncccc1CN1CCN2CCN(C)CC2C1 (stereo not shown) | -22.03 | 24.95
CCn1nc2c(cc1=O)CN(CC(=O)Nc1nccs1)CC2 | -5.98 | 9.829
COc1cc(N2CCC3(CCCN3Cc3ccn(C)n3)CC2)ncn1.O=C(O)C(F)(F)F | -24.2 | 24.77
c1ncc2c(n1)CN(c1ncnc3[nH]ccc13)CC2 | 1.512 | -81.37
CCCc1nc2c(c(C)c(C)n2CCN(C)C)c(N)c1CC | 15.42 | 6.331
Cc1nc(N2CCCC2)nc2c1CCN(C(=O)CC1CCCC1)CC2 | -35.59 | 9.538
O=C(O)CC(O)(CC(=O)O)C(=O)O.[H][C@@]12CC[C@@](O)(c3ccccn3)[C@]1([H])CN(Cc1cccc(OC)c1OC)C2 | -15.63 | -31.74
CCNC(=O)c1ccc2c(c1)nc1n2CCN(C(C)C)C1 | 0.3615 | -
COCCn1cc2c(n1)C(CNCc1ccc(F)cc1)OCC2.O=C(O)C(F)(F)F.O=C(O)C(F)(F)F (stereo not shown) | 6.516 | -16.28
Cc1cnn(CC2CCCN2C(=O)c2cn(C)c3ccccc23)c1 (stereo not shown) | -9.233 | -
Cc1nc(C(C)C)sc1C(C)N(C)C(=O)c1ccc(=O)n(C)c1 (stereo not shown) | -17.8 | 3.76
CCc1nnsc1C(=O)N1CCCN(Cc2ccc(C)cc2)CC1 | 14.54 | 12.98
O=C(O)C(F)(F)F.[H][C@@]12CN(C(=O)Cc3ccsc3)C[C@]1([H])OCCN2CC1CCCO1 (stereo partly shown) | -30.31 | -26.61
CC(C)(C)OC(=O)N1CCC(C(=O)NCc2ccccc2)C1 (stereo not shown) | -13.31 | -
Cc1cnc(C(=O)NC(CN2CCCC2=O)c2ccccc2)cn1 (stereo not shown) | 18.95 | -
N[C@H]1CC[C@@H](n2cc(C(=O)NC3CCc4ccccc4C3)nn2)CC1 (stereo partly shown) | 1.624 | 43.67
Cc1ccc(N2CCCC3(COCCN(c4cnccn4)C3)C2)nn1 (stereo not shown) | -14.7 | 22.26
Cc1cccc(N2CCN(CCCNC(=O)c3nccn3C)CC2)c1 | 5.684 | 20.98
CNC(=O)N1CCOC(C)(c2cnn(C)c2)C1 (stereo not shown) | 0.7878 | -
[H][C@]12CC[C@]([H])(CNC1)N2c1cc(-c2ccccc2F)nc2ccnn12 | 7.848 | 9.793
CCNc1ncc(C(=O)NC2CCOCC2)cn1 | 9.915 | 35.53
COc1cccc2c1CCN(C(=O)NCCc1nccn1C)C2 | -15.22 | -
CC(=O)Nc1nc(C)c(S(=O)(=O)NCCc2ccccn2)s1 | 0.7379 | 11.45
O=C(O)C(F)(F)F.[H][C@]12CCC[C@@H](CNc3nccn3C)[C@@]1([H])CN(Cc1cccnc1)C2 | -31 | -
CCc1nc(C)c(CN2CCOC(CCCC(C)C)C2)[nH]1 (stereo not shown) | -19.88 | -6.287
Cn1ncc2c(NCCn3cccc3)nc(C3CCCC3)nc21 | -24.81 | 23.68
O=C(NCC1CCN(c2ncccn2)CC1)c1cnccn1 | 19.71 | -19.39
Cc1cc(C)n(-c2cncc(NCCNC(=O)CC3CCCC3)n2)n1 | -1.108 | 31.87
CN1CC(=O)N(c2ccccc2)CC12CCN(C(=O)CC1CC1)C2.O=C(O)C(F)(F)F (stereo not shown) | -18.08 | -
C[C@@H]1CN(C(=O)c2nc3ccc(Cl)cn3c2-c2ncc[nH]2)C[C@H](C)O1 | -4.361 | 18.51
COc1ccc(C2(C(=O)N3CC(c4cccnc4)C3)CC2(C)C)cc1 (stereo not shown) | -2.39 | -38.33
Cc1n[nH]c(SCC(=O)NC(c2ccccn2)C(C)C)n1 (stereo not shown) | 2.364 | -30.16
O=C(Nc1ccc(-c2csnn2)cc1)N1CCCC1 | -2.387 | 28.27
[H][C@@]12COC[C@H](c3nc(C)no3)[C@]1([H])CN(C(=O)Cc1ccc(F)cc1)C2 | 7.065 | -25.38
COc1ccccc1N1CCN(C(=O)CCCS(N)(=O)=O)C(C)C1 (stereo not shown) | -15.62 | 8.143
Cc1cc(CNC(=O)c2ccc(F)c(COCC3CC3)c2)no1 | 6.28 | 25.36
O=C(CCN1CCCC(CO)(CC2CC2)C1)NC1CCCCC1 (stereo not shown) | 13.94 | -12.59
Cc1cc(C)cc(N2CCN(Cc3cccc(CCN)c3)CC2=O)c1 | 0.9561 | 10.2
COCCN1CCC(CN(CC2CCCO2)C(=O)COC)CC1 (stereo not shown) | -15.56 | -21.01
CNS(=O)(=O)c1ccc(C(=O)N2CCCC2c2ccccc2C)o1 (stereo not shown) | -20.05 | 20.75
C/N=C1\c2cc3cc(OC)ccc3n2CCN1C.Cl | -10.17 | -3.392
Cc1cncc(NC(=O)c2ccc(CN3CCC(CO)CC3)cc2)c1 | -31.12 | 23.8

Repeated from the top, 5 entries:

compound	Mtb heat-shock	Mtb growth Cornell
Cc1nn(C)c(C)c1C1CCCN1C(=O)c1ccc(C(N)=O)cn1 (stereo not shown)	9.695	-
Cn1cc(CN2CCc3nc4sccc4c(=O)n3CC2)cn1	-25.27	-10.08
O=S1(=O)CCN(c2nc(C3CC3)ns2)CC1	-20.68	10.85
CN(C)CCOCc1nnc2n1CCN(Cc1ccc(F)cc1)CC2.O=C(O)C(F)(F)F.O=C(O)C(F)(F)F	-30.67	-12.27
CCc1nnc(CN(C)CC2CCCCC2)o1	32.51	34.18